Measured values: publication PMC10778290
Results are given in words; binding and its absence hold for the method and conditions named. Binding seen in cells or lysates may run through a third protein. Some binding calls cover weakened binding; strength is not graded here. For some of these results: Tags and fused reporters may be left off the sequences shown.

Amino acid sequences for entries named in this document (tags omitted). Residues count along the entry.
UniProt P08581, residues 25-1390: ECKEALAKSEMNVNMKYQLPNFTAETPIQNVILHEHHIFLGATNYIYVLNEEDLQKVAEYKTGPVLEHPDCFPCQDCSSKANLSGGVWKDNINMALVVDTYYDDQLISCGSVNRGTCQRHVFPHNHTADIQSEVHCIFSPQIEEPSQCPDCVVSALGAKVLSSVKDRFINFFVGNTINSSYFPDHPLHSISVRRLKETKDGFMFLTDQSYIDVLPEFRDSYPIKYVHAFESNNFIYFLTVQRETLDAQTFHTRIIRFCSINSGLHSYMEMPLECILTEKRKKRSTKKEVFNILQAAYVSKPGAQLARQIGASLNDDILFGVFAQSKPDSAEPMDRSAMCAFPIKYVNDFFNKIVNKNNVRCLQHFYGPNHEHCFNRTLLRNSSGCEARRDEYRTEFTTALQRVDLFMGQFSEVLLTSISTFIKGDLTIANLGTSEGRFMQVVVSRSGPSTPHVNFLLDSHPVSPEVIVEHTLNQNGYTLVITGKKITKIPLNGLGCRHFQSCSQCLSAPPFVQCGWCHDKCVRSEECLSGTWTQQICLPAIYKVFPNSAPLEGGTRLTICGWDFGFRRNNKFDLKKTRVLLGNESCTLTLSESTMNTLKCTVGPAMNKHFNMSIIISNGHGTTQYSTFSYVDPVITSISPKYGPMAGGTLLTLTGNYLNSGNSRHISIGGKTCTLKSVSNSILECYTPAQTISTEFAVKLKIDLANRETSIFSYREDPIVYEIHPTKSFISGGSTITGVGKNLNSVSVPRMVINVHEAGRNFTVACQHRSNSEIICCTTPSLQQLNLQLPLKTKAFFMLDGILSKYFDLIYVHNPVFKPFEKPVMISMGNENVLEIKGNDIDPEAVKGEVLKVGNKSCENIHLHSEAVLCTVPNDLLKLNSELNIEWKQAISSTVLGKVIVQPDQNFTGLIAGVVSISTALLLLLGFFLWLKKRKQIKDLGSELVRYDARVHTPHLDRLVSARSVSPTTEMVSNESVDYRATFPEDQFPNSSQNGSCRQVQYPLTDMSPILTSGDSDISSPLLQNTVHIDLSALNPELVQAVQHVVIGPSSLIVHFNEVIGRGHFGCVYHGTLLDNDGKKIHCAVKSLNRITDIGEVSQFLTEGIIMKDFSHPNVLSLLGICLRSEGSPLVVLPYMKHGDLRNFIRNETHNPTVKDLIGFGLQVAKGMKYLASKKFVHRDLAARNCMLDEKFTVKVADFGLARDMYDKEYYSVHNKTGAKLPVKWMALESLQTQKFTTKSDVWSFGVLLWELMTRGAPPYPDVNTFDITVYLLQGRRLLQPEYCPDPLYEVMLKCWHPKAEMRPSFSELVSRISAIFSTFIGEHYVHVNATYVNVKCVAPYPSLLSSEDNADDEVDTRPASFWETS

What was measured:
[1] = molecular target: T1, Flag-tagged ESM1 in the supernatant of transfected HEK293T cells (human) (UniProt Q9NQ30); assay: co-IP; HUVECs transfected with Myc-c-Met treated with the supernatant of HEK293T cells transfected with Flag-ESM1; 5 mg total cell lysate immunoprecipitated overnight at 4 °C with anti-Flag or anti-Myc beads; immunoblot
T1 sequence: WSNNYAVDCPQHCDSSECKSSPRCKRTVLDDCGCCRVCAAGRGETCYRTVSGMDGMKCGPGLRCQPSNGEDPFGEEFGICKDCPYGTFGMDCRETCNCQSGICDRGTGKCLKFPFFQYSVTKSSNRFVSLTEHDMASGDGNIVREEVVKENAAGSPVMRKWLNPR

GST-ESM1 (human) = molecular target: T2, GST-ESM1 (human) (UniProt Q9NQ30); assay: pull-down; GST-ESM1 on GST agarose beads incubated overnight at 4 °C with lysates of HUVECs overexpressing Myc-c-Met; washed three times with PBS; Western blot with anti-Myc; GST alone as control; only the target purified
T2 sequence: T1 sequence

[2] = molecular target: T3, Endothelial-specific molecule 1 (ESM1) in the supernatant of AGS cells overexpressing ESM1 (human) (UniProt Q9NQ30); assay: co-IP; HUVECs treated with the supernatant of AGS cells overexpressing ESM1, then lysed; immunoprecipitation with anti-c-Met antibody and with anti-ESM1 antibody; IgG as negative control; immunoblot
T3 sequence: T1 sequence

[3] = molecular target: c-Met, endogenous in HUVECs (human (endogenous in HUVEC)) (UniProt P08581); assay: as above

Myc-tagged c-Met expressed in HUVECs (from UniProt P08581 25-1390) (receptor)
binding [1]: binds | binding (GST-ESM1 (human)): binds

c-Met, endogenous in HUVECs (from UniProt P08581 25-1390) (receptor)
binding [2]: binds

B1: Endothelial-specific molecule 1 (ESM1) in the supernatant of AGS cells overexpressing ESM1 (ligand, UniProt Q9NQ30 20-184)
chain: T1 sequence
binding [3]: binds
